# Assay results taken from patent US20260176354A1, “ANTIBODY BINDING TO CD22, AND BISPECIFIC ANTIBODY, CHIMERIC ANTIGEN RECEPTOR AND ANTIBODY-DRUG CONJUGATE COMPRISING SAME, AND USE THEREOF” (THE ASAN FOUNDATION, priority 2022, published 2026).
# Sequences of proteins named here, by UniProt entry; tags and fusion partners are left off. Residues count along the entry.
# UniProt P20273, residues 20-847: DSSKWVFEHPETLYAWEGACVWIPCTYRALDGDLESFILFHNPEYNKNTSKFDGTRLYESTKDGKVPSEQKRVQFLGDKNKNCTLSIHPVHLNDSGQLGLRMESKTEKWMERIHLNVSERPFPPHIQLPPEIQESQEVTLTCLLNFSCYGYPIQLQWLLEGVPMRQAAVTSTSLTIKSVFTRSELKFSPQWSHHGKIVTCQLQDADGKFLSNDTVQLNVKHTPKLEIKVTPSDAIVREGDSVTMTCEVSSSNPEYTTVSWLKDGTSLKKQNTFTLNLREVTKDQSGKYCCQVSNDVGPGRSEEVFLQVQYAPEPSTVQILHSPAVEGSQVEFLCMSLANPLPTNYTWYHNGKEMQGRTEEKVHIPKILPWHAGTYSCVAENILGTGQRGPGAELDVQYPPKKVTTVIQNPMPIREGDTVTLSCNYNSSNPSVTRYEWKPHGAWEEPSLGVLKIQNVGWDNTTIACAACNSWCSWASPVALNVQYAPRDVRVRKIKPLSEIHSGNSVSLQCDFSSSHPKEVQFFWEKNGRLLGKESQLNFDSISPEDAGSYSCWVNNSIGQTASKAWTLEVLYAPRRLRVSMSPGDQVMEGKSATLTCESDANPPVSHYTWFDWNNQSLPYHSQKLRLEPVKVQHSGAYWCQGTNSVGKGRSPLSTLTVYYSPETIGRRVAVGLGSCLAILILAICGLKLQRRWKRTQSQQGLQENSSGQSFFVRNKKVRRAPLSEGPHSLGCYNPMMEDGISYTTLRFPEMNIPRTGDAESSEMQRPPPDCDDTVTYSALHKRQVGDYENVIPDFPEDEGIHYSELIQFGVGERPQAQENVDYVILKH
# Numbering of substitutions follows the chain as printed. These are yes or no findings as the source states them, for the method shown. Some entries that bind do so weakly or less than the wild type. For some assays here: Where a sequence is shown, tags or fusion partners need not be part of it.
# B1: anti-CD22 IgG protein 2-3-14 (antibody, V domains shown)
# VH: AVTLDESGGGLQTPGGGLSLVCKASGFSFSDYGMGWVRQAPGKGLEFVASISNTGSYTDYGAAVKGRATISRDNGQSTLRLQLNNLRAEDTGTYFCAKSAYGGSYGSSSIDAWGHGTEVIVSS
# VL: LTQPSSVSANPGETVKITCSGSNNTYGWYQQKAPGSAPVTVIYDNTNRPSDIPSRFSGSKSGSTNTLTITGVQAEDEAVYFCGSRDSTYVGIFGAGTTLTVLR
# notes: also called Feb; 3, 2014
# B2: anti-CD22 IgG protein 2-3-14_H1-24 (antibody, V domains shown)
# VH: B1 VH with S28A, S30G, D31R, Y32S, G33S
# VL: B1 VL
# B3: anti-CD22 IgG protein 2-3-14_H2-40 (antibody, V domains shown)
# VH: B1 VH with S50F, I51L, S52G, N53S, T54S, G55S
# VL: B1 VL
# B4: anti-CD22 IgG protein CI4-47_8-1_H1-2-37 (antibody, V domains shown)
# VH: EVQLLESGGGLVQPGGSLRLSCAASGFTFSRHGMYWVRQAPGKGLEWVSGIGSSGTGTYYGSAVRGRFTISRDNSKNTLYLQMNSLRAEDTAVYYCARDYGSDSGVGWGIYAGEIDAWGQGTLVTVSS
# VL: LTQPPSVSVSPGQTARITCSGGSGGYGWYQQKPGSAPVSVIYDNDQRPSGIPERFSGSSSGTTVTLTISGVQAEDEADYYCGSYDSSYVGIFGGGTKLTVLR
# B5: anti-CD22 IgG protein CI4-47_8-1_H1-2-1 (antibody, V domains shown)
# VH: B4 VH with R31K, M34H, V106I
# VL: B4 VL
# B6: anti-CD22 IgG protein CI4-47_8-1 (antibody, V domains shown)
# VH: B4 VH with R31N, H32Y, G33C, Y35S, V106C
# VL: B4 VL
# B7: recombinant anti-CD22 scFv-Cκ-HA fusion protein 2-3-14 (scFv)
# scFv: LTQPSSVSANPGETVKITCSGSNNTYGWYQQKAPGSAPVTVIYDNTNRPSDIPSRFSGSKSGSTNTLTITGVQAEDEAVYFCGSRDSTYVGIFGAGTTLTVLGGGGSGGGGSGGGGSAVTLDESGGGLQTPGGGLSLVCKASGFSFSDYGMGWVRQAPGKGLEFVASISNTGSYTDYGAAVKGRATISRDNGQSTLRLQLNNLRAEDTGTYFCAKSAYGGSYGSSSIDAWGHGTEVIVSSGGGGSGGGGSGGGGSRTVAAPSVFIFPPSDEQLKSGTASVVCLLNNFYPREAKVQWKVDNALQSGNSQESVTEQDSKDSTYSLSSTLTLSKADYEKHKVYACEVTHQGLSSPVTKSFNRGESGGAYPYDVPDYAS
# notes: The text prints the clone name 2-3-14 as 'Feb; 3, 2014' in several paragraphs (date conversion artefact); also called Feb; 3, 2014; 2-3-14 scFv-Cκ-HA
# B8: recombinant anti-CD22 scFv-Cκ-HA fusion protein CI4-47 (scFv)
# scFv: LTQPSSVSANPGETVKITCSGGSGGYGWYQQKSPGSAPVSLIYDNDQRPSDIPSRFSGSKSGSTGTLTITGVQADDEAVYYCGSYDSSYVGIFGAGTTLTVLGGGGSGGGGSGGGGSAVTLDESGGGLQTPGGALSLVCKASGFTFSNYCMQWVRQAPGKGLEWVAGIGSSGTGTYYGSAVRGRATISRDNGQSTVRLQLNNLRAEDTGTYYCARDYGSDSGCGWGIYAGEIDAWGHGTEVIVSSGGGGSGGGGSGGGGSRTVAAPSVFIFPPSDEQLKSGTASVVCLLNNFYPREAKVQWKVDNALQSGNSQESVTEQDSKDSTYSLSSTLTLSKADYEKHKVYACEVTHQGLSSPVTKSFNRGESGGAYPYDVPDYAS
# notes: Chicken-derived scFv fused to a human constant kappa region and an HA tag; expressed in HEK293F cells, purified on KappaSelect; also called CI4-47 scFv-Cκ-HA
# Target: CD22 on B-cell lymphoma cells (OCI-Ly7 cells; Raji cells) (human) (UniProt P20273)
# Assay: flow cytometry on Raji cells, 0.1 µM IgG, anti-human Cκ-APC detection
row,binding,Binder
1,binds,B1
2,binds,B2
3,binds,B3
4,binds,B4
5,binds,B5
6,binds,B6

# Target: CD22 on B-cell lymphoma cells (OCI-Ly7 cells; Raji cells) (human) (UniProt P20273)
# Assay: flow cytometry on OCI-Ly7 cells, 0.25 µM fusion protein, anti-HA detection
row,binding,Binder
1,binds,B7
2,binds,B8
